The nature of this assay: qHTS Assay for Lipid Storage Modulators in Drosophila S3 Cells.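 As to cell number change: cells counted by Cell Tracker Red CMTPX staining in the red channel.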 Particulars: BODIPY lipid droplet fluorescence, 18-24 h; for cell number change: measured here: cell count max response, cells fed with added oleic acid. The essentials: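 Drosophila S3 cells loaded with oleic acid (400 uM, as added) and compounds at several concentrations; lipid droplets imaged by 488-nm laser-scanning cytometry, 500–530 nm intensity and object ratio to cell channel. Percent activity normalized to 20 uM Triacsin C.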
A general note: qHTS replaces the single test concentration by a dilution series.

The mark [1] stands for this setting: measured here: lipid fluorescence (Fed channel) AC50, cells fed with added oleic acid.
[2] abbreviates: measured here: cell number channel AC50, cells fed with added oleic acid.

Experimental findings from PubChem BioAssay AID2685 (National Center for Advancing Translational Sciences (NCATS), 2010) are described below.

The AC50 is the concentration at which the activity in the assay is half-maximal.

Structures are written as SMILES. The list shows a part of the results. Further columns of the screen follow, without active or inactive calls. Compounds called inactive in the main read-out are mostly missing here. Words in brackets tell the shape of the fitted curve; partial curves, single points and poor fits give uncertain potencies.

With `CCOC(=O)C1(S(=O)(=O)c2ccc(Cl)cc2)CCN(Cc2ccc(Cl)cc2)CC1`, the AC50 under setting [1] was 29.1 µM [rising, single point].

With `COc1ccccc1N1CC(C(=O)OCC(=O)Nc2cc(C)on2)CC1=O` (stereo unspecified), the cell number change was -16.5%.

In the case of `Cc1csc(=O)n1CC(=O)OCc1nnc(-c2ccc([N+](=O)[O-])cc2)o1`, the cell number change was 1.04%.

In the case of `COc1ccc(CC(=O)O/N=C(\N)c2ccncc2)cc1`, the cell number change amounted to 5.12%. Under setting [1], the AC50 is 3.66 µM [rising, single point].

As to `Cc1ccc2nc(SCC(=O)NCc3ccco3)c(C#N)cc2c1`, the half-maximal activity concentration (AC50) is, setting by setting: under setting [2], 6.51 µM [rising, single point]; under setting [1], 6.51 µM [rising, single point].

Regarding `COCCn1c(/C=C/c2ccccc2)nc2ccccc21`, the cell number change is -9.85%. For the same compound, under setting [2], the AC50 is 0.103 µM [falling, full curve, poor fit]. The concentration at half-maximal activity (AC50) under setting [1] is 18.4 µM [falling, single point].

Take `O=C(NCCNc1ccnc2cc(Cl)ccc12)c1ccccc1F`: the cell number change was -24.1%. Besides, the AC50 under setting [1] was 2.06 µM [falling, full curve, poor fit].

Consider `COc1ccc(N2CC(C(=O)Nc3ccc4c(c3)OCO4)CC2=O)cc1` (stereo unspecified), for which the concentration at half-maximal activity (AC50) is 2.31 µM [rising, partial curve] under setting [2] and 2.06 µM [rising, partial curve] under setting [1].

Take `Cc1cccc(-n2c(C)cc(/C=N\NC(=O)c3ccco3)c2C)c1`: the cell number change came out at 15.9%.

For `CCC(C)C(NC(=O)C1CCC(C)CC1)C(=O)Nc1ccc(OC)cc1` (stereo unspecified), the cell number change was 5.22%.

`CCc1cccc(C)c1NC(=O)COC(=O)Cc1ccsc1`: the cell number change stood at 19.8%. In addition, the AC50 under setting [1] was 16.4 µM [falling, single point].

On to `N#Cc1ccc(C(=O)CSc2nnc(-c3ccc(C(F)(F)F)cn3)s2)cc1`, for which the cell number change was -27.5%. Further, the AC50 under setting [2] is 3.66 µM [falling, full curve, poor fit]. Moreover, the concentration at half-maximal activity (AC50) under setting [1] is 3.26 µM [falling, partial curve, poor fit].

Consider `O=C(/C=C/c1ccc2c(c1)OCO2)Nc1cc(S(=O)(=O)N2CCOCC2)ccc1N1CCOCC1`, for which the cell number change is -37.1%. Also, under setting [1], the concentration at half-maximal activity (AC50) is 0.0291 µM [rising, full curve, poor fit].

As for `CC(=O)Nc1ccc(S(=O)(=O)Nc2nnc(C(C)(C)C)s2)cc1`, the cell number change was -6.06%.

As to `COc1ccc(CC(NC(C)=O)C(=O)NC2CCN(S(=O)(=O)c3ccc(NC(C)=O)cc3)CC2)c(OC)c1` (stereo unspecified), the cell number change came out at 15%. Also, the AC50 under setting [1] is 25.9 µM [rising, partial curve, poor fit].

As for `CCCCn1c(N)c(N(CC(C)C)C(=O)C2CC(=O)N(c3ccc(CC)cc3)C2)c(=O)[nH]c1=O` (stereo unspecified), the AC50 under setting [2] was 0.517 µM [falling, partial curve, poor fit] and the AC50 under setting [1] is 6.51 µM [falling, single point].

`Cc1nnc2c(-c3ccccc3)nc3ccccc3n12`: the cell number change is -1.86%. In addition, under setting [1], the concentration at half-maximal activity (AC50) is 1.84 µM [rising, partial curve].

In the case of `O=c1oc(-c2ccc(Br)cc2)nc2ccccc12`, the cell number change worked out at 3.52%. In addition, the concentration at half-maximal activity (AC50) under setting [1] is 6.51 µM [falling, single point].

Consider `Cc1ccc(Nc2nc3ccccc3o2)cc1F`, for which the cell number change is -50.1%. Under setting [2], the AC50 is 16.4 µM [falling, partial curve]. Moreover, the AC50 under setting [1] was 16.4 µM [falling, partial curve].

For the compound `O=C(/C(=C/O)N=Nc1ccccc1)c1ccc(Cl)cc1`, the cell number change was -128%.

As for `CCOC(=O)c1ccc(NC(=S)N2CCN(CCN=CC3=C(O)CC(C)(C)CC3=O)CC2)cc1`, the cell number change was -63.1%. Moreover, the AC50 under setting [2] was 29.1 µM [falling, single point].

In the case of `O=C(O)COc1ccc2c(c1)OCCO2`, the cell number change was -13.8%. Moreover, the AC50 under setting [1] was 29.1 µM [falling, single point].

Consider `Cc1cc(C(=O)NCCCn2ccnc2)sc1-c1ccccc1`, for which the half-maximal activity concentration (AC50) under setting [2] was 2.91 µM [rising, partial curve].

In the case of `CCn1cc(C(=O)O)c(=O)c2cc(F)c(N3CCN(C(=S)NC(=O)c4ccc(Br)cc4)CC3)cc21`, the cell number change is -34.4%.

Turning to `CC(C)C[C@H](NC(=O)N1CCn2c1nc1ccccc12)C(=O)N[C@H](Cc1ccccc1)C(=O)O`, the cell number change was determined as 34.3%.

Consider `O=C(O)Cc1cn(-c2ccccc2)nc1-c1ccc(Cl)cc1`, for which the AC50 under setting [1] is 0.116 µM [falling, single point].

As to `Cc1cccn2c(=O)c(/C=C(\C#N)S(=O)(=O)c3ccccc3)c(N3CCN(Cc4ccccc4)CC3)nc12`, the cell number change is -10.4%. In addition, the AC50 under setting [1] is 6.51 µM [falling, single point].

As to `O=C(Nc1nc(-c2ccc(-c3ccccc3)cc2)cs1)C1CCCO1` (stereo unspecified), the cell number change is -3.26%. In addition, under setting [1], the half-maximal activity concentration (AC50) was 6.51 µM [rising, single point].

`NNC(=O)c1cc2nc(-c3cccs3)cc(C(F)(F)F)n2n1`: the cell number change turned out to be 2.55%. Moreover, the half-maximal activity concentration (AC50) under setting [2] was 2.31 µM [falling, partial curve].

As to `CCCCn1c(N)c(N(CCOC)C(=O)c2cc3c(s2)CCC(C)C3)c(=O)[nH]c1=O` (stereo unspecified), the cell number change worked out at 22.9%.

In the case of `COc1ccc(NC(=O)Nc2nnc(-c3ccccc3F)s2)cc1`, the cell number change came to 22%.

As to `Cn1nccc1NC(=O)Nc1cccc(Cl)c1`, the cell number change was -7.88%. In addition, the AC50 under setting [1] is 11.6 µM [falling, single point].

For `CCN(C(=O)COc1ccc(F)cc1Br)c1c(N)n(Cc2ccccc2)c(=O)[nH]c1=O`, the cell number change is -33.9%. The AC50 under setting [2] was 8.2 µM [falling, partial curve]. Besides, under setting [1], the AC50 is 29.1 µM [falling, single point].

Consider `O=C(CN1C(=O)C2C3C=CC(C3)C2C1=O)Nc1nc(SCc2ccc(Cl)cc2)n[nH]1` (stereo unspecified), for which the cell number change was -10.8%.

On to `CC(C)(C)NC(=O)CSc1ncnc2c1nnn2Cc1ccccc1Cl`, for which the cell number change was -32.6%. For the same compound, the AC50 under setting [2] is 29.1 µM [falling, single point]. Further, the half-maximal activity concentration (AC50) under setting [1] is 29.1 µM [falling, single point].

Turning to `O=C(Nc1cc2ccccc2oc1=O)C1CCCCC1`, the cell number change is 31.4%. The AC50 under setting [2] was 18.4 µM [rising, partial curve]. Further, under setting [1], the concentration at half-maximal activity (AC50) was 0.291 µM [rising, full curve, poor fit].

Consider `O=C(/C=C/c1cccc2ccccc12)NCCC1=CCCCC1`, for which the cell number change is -12.6%. For the same compound, the AC50 under setting [1] was 0.517 µM [falling, single point].

On to `CC(=O)Oc1ccccc1/C=C1\CCOC1=O`, for which the cell number change is -62.2%. Further, under setting [2], the AC50 was 5.17 µM [falling, full curve]. Besides, under setting [1], the concentration at half-maximal activity (AC50) was 29.1 µM [falling, single point].

As for `COc1ccc(-c2ccc(=O)n(CC(=O)Nc3cccc(O)c3)n2)cc1OC`, the cell number change is -5.31%. Under setting [1], the half-maximal activity concentration (AC50) is 3.26 µM [rising, single point].

On to `Cc1cccc(-n2c(-c3csc(C(C)C)c3)n[nH]c2=S)c1`, for which the cell number change was -20.2%. Moreover, the AC50 under setting [1] is 23.1 µM [rising, partial curve].

Regarding `COCCC(=O)N1CCC(Oc2ccc(C(=O)NC3CCOC(C)(C)C3)cc2)CC1` (stereo unspecified), the cell number change was -8.78%. For the same compound, the AC50 under setting [1] is 6.51 µM [falling, single point].

`Cc1nn(C(C)C(=O)NC2CCCCCC2)c(=O)c2nn(-c3ccccc3)c(C)c12` (stereo unspecified): the cell number change was -16.5%.

As for `N/C(=N\OC(=O)C12CC3CC(CC(C3)C1)C2)c1ccccn1`, the cell number change is -45.1%. The concentration at half-maximal activity (AC50) under setting [2] was 29.1 µM [falling, single point]. The AC50 under setting [1] is 29.1 µM [falling, single point].

Regarding `c1cncc(-c2nc3ccccn3c2Nc2ccc3c(c2)OCCO3)c1`, the concentration at half-maximal activity (AC50) is 6.51 µM [rising, single point] under setting [2] and 6.51 µM [rising, single point] under setting [1].

`COc1cc(C(=O)NCC(=O)N/N=C/c2ccc(-c3cccc([N+](=O)[O-])c3)o2)cc(OC)c1OC`: the cell number change stood at 14.3%.

Turning to `CCCn1c(N)c(N(CCOC)C(=O)COC(=O)CSc2cc(C)c3ccccc3n2)c(=O)[nH]c1=O`, the concentration at half-maximal activity (AC50) under setting [1] was 2.06 µM [rising, partial curve].

In the case of `Cc1ccc(OC(=O)CCC(=O)OCCCC(F)(F)C(F)(F)F)cc1`, the cell number change was -11.7%. Moreover, under setting [2], the AC50 was 0.00461 µM [falling, full curve, poor fit]. The half-maximal activity concentration (AC50) under setting [1] is 0.731 µM [falling, full curve].

Consider `CN(C)c1ccc(/C=C/C=C2/SC(=S)N(c3ccccc3)C2=O)cc1`, for which the cell number change is -54.3%. Moreover, the half-maximal activity concentration (AC50) under setting [2] was 25.9 µM [falling, single point].

`CC(=O)c1cnc2sccn2c1=O`: the cell number change was -26.5%.

With `CCn1cc(C(=O)O)c(=O)c2cnc(N3CCN(C(=S)NC(=O)c4ccc(OC)cc4)CC3)nc21`, the cell number change came out at 9.72%.

Consider `CC1(C)NC(=O)N(CC(=O)Nc2cc(S(=O)(=O)N3CCOCC3)ccc2N2CCOCC2)C1=O`, for which the cell number change came to 29.8%.

As for `CC(C)C[C@H](NC(=O)OC(C)(C)C)C(=O)N/N=C/C1=Cc2ccccc2OC1C` (stereo partly specified), the cell number change was 32.5%. Moreover, under setting [2], the half-maximal activity concentration (AC50) was 8.2 µM [rising, partial curve]. Besides, the concentration at half-maximal activity (AC50) under setting [1] is 20.6 µM [rising, partial curve].

For `CN1C(=O)C(O)(C2COC(C)(C)CC2=O)c2cc(Br)ccc21` (stereo unspecified), the cell number change is -12%. Under setting [1], the AC50 is 6.51 µM [falling, single point].

In the case of `Cc1ccccc1C(=O)N1CCN(c2ccc(N3CCOCC3)nn2)CC1`, the cell number change was -36.3%. Further, the AC50 under setting [2] is 20.6 µM [falling, single point]. Further, the AC50 under setting [1] is 18.4 µM [falling, single point].

`O=c1c2ccccc2nnn1CSc1ccccc1F`: the cell number change was 19.7%. Moreover, under setting [1], the AC50 is 0.0461 µM [falling, full curve, poor fit].

For the compound `Cc1cc([N+](=O)[O-])nn1CC(=O)NCCCN1CCOCC1`, the cell number change is 14%.

`COc1cc(/C=N/NC(=O)C(=O)NCc2ccco2)cc(Br)c1O`: the cell number change was -17.7%. Besides, the AC50 under setting [1] was 4.11 µM [falling, partial curve, poor fit].

For the compound `CN(C)c1cc[n+](CC(=O)N2c3ccccc3Sc3ccccc32)cc1`, the cell number change came out at 9.77%. Besides, under setting [2], the AC50 is 6.51 µM [falling, single point]. Also, the half-maximal activity concentration (AC50) under setting [1] was 6.51 µM [falling, single point].

As to `CCCCC1CCC(C(=O)Nc2ccc(N3CCOCC3)cc2N2CCOCC2)CC1` (stereo unspecified), the cell number change was -40.8%. Also, under setting [2], the concentration at half-maximal activity (AC50) is 29.1 µM [falling, single point]. Further, under setting [1], the AC50 is 1.84 µM [rising, partial curve].

`COC(=O)c1[nH]c2ccccc2c1NC(=O)CN1CCC(C(N)=O)(N2CCCCC2)CC1`: the cell number change is 5.12%.
